No constants are given. Whether binding was seen depends on the method and setting. Binding seen in cells or lysates may run through a third protein. Some binding calls cover weakened binding; strength is not graded here. For some of these results: Sequences can lack the tags named with a protein.

Chains of the proteins cited; added tags and fusions are not shown.
UniProt Q9JK66: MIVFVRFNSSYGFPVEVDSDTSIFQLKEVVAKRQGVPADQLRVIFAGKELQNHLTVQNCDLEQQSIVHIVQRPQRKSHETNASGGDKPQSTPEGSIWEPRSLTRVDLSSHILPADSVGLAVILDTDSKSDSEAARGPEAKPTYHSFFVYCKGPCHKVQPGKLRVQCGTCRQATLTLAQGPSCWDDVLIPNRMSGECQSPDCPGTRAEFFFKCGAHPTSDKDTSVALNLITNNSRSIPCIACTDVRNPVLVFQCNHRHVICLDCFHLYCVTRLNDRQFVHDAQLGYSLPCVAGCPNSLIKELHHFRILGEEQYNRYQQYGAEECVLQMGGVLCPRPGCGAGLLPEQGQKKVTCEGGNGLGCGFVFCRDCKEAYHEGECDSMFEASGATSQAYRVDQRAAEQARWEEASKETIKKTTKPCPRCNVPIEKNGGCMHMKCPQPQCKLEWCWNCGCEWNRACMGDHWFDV
UniProt O60260: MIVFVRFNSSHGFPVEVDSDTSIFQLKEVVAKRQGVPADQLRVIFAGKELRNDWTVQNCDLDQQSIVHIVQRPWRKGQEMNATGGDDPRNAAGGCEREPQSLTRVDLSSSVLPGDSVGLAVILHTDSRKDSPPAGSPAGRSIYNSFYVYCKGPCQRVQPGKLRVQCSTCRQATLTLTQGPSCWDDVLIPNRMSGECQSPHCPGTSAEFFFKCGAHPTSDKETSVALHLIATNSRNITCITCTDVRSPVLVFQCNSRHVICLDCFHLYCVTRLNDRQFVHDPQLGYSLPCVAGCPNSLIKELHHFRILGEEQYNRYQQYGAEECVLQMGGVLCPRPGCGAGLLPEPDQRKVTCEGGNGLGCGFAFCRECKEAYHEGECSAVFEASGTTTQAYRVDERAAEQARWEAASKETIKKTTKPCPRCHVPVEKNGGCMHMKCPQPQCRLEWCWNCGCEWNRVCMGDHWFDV
UniProt O35889: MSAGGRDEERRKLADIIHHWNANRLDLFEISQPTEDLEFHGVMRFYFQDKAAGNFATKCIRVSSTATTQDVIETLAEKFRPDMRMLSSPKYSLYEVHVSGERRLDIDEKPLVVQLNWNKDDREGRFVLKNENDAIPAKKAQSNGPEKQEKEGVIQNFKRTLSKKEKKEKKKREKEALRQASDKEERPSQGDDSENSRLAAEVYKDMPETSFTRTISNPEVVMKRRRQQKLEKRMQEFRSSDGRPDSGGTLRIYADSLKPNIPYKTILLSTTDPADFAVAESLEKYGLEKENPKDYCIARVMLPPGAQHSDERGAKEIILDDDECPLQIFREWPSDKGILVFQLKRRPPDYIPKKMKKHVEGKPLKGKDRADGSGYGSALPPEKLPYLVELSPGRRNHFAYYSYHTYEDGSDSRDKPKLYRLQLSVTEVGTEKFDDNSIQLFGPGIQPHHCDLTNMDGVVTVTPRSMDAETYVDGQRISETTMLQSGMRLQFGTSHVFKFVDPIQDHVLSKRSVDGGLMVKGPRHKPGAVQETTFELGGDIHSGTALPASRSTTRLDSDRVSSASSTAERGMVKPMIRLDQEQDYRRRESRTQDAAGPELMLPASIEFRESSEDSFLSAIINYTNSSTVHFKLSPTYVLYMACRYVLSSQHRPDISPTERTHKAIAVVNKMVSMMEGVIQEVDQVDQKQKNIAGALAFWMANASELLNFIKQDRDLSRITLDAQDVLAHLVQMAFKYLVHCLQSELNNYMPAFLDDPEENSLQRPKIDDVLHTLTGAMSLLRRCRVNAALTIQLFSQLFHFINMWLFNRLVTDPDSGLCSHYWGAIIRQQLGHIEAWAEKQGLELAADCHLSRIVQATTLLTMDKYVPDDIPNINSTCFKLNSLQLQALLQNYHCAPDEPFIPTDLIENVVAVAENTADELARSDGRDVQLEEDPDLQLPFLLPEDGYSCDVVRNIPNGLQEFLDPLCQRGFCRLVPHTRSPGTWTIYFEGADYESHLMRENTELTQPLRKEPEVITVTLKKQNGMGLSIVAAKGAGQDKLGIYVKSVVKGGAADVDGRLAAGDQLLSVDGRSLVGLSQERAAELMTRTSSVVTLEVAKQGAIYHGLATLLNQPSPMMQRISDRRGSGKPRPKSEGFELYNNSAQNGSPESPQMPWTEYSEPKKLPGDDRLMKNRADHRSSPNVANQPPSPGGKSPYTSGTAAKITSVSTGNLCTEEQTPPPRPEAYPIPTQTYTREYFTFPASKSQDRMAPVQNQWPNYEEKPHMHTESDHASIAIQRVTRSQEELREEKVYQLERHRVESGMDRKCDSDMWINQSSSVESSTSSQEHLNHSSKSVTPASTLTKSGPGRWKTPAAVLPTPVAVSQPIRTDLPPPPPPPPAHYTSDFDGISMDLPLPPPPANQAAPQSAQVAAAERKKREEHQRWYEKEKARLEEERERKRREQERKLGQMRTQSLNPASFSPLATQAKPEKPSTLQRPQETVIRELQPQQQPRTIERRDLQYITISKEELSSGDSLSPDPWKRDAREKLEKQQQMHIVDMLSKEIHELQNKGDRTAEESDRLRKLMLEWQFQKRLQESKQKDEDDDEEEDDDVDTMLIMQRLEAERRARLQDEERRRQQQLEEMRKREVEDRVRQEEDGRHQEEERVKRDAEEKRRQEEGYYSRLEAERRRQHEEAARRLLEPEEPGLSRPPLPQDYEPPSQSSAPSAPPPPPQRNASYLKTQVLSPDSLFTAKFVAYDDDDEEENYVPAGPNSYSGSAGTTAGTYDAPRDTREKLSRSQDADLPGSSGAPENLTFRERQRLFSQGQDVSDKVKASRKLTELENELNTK

For experiment [1], the target named is T1, GST-AF-6 (amino acids 849-1190), encompassing the AF-6 PDZ domain (UniProt P55196).
T1 sequence: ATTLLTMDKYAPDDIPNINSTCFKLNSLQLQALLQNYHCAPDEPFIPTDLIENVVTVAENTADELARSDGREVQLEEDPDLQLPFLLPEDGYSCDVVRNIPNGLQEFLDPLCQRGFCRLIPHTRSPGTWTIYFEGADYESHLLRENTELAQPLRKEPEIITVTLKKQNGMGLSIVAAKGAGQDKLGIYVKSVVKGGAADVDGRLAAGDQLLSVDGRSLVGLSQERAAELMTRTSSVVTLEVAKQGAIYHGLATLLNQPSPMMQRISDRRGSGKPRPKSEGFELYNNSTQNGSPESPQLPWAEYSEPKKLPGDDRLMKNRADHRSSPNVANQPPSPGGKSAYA
The experiment is described as follows: pull-down; GST-fusion protein (5 μg/ml) coupled to glutathione-agarose, incubated with clarified lysate of transfected HEK293 cells for 1 h at 4°C; 50 mM Tris pH 7.4, 140 mM NaCl, 0.5% Triton X-100, 1% DOC; washes with 500 mM NaCl; anti-HA blot; only the target purified.

The target of experiment [2] is GST-FKBP12 (UniProt P62942). Described as above.
In experiment [3] the target is endogenous parkin (rat brain) (rat (endogenous in rat brain)) (UniProt Q9JK66). The experiment can be described thus: co-IP; rat brain homogenate (2 mg/ml), anti-parkin antibody on protein G beads, 7 h; 50 mM Tris pH 7.4, 140 mM NaCl, 1% DOC, 1% NP-40, 0.1% SDS; washes with 500 mM NaCl; anti-AF-6 blot; control IgG.
Experiment [4] has as its target HA-parkin (wild-type) (UniProt O60260). The experiment is described as follows: co-IP; HEK293 cells co-transfected; anti-HA coupled to protein G beads, 4 h; 50 mM Tris pH 7.4, 140 mM NaCl, 1% Triton X-100, 1% DOC, 0.1% SDS; washes with 500 mM NaCl; anti-myc blot.

On to “HA-parkin (wild-type) (from UniProt O60260 1-465) (enzyme)”, for which the binding result in experiment [1] is “binds”; in experiment [2], “no binding (tested: 5 μg/ml GST-fusion protein)”.

“endogenous AF-6 (rat brain) (from UniProt O35889 1-1829)”: in experiment [3], the binding entry is on record as “binds”.

Consider myc-FKBP12 (from UniProt P62942 1-108), for which the binding entry in experiment [4] is “no binding”.

The record behind these values is paper PMC3803144.
